# Test system: Candida albicans (ATCC-10231)
# Test: Broth microdilution MIC
# Assay type: cell-based
# Conditions: ATCC10231, C.albicans
# Description: ATCC: American Type Culture Collection; NRRL: Northern Regional Research Laboratory The compounds 2(a-c) obtained could only be completely solubilised with dimethyl sulphoxide (DMSO) and the highest possible stock solutions of 50 mg.mL-1 were prepared. […]
# 3.1. Determination of Minimum Inhibition Concentration (MIC)
# The minimum inhibition concentration (MIC) values of the compounds 2(a-c) against the test bacteria used in the study were determined according to the broth microdilution method.[1-2] MHB or SDB was used as test medium and bacterial and yeast suspensions were prepared at 0.5 Mc Farland concentration for each test bacteria. Double layer serial dilutions were prepared in "U" type 96-well microtiter plates. Medium+bacteria suspensions containing only medium in the first row, medium+bacteria in the second row and the final concentrations of the synthesised substances in the other rows between 25 mg.mL-1 and […] were added to the wells with a final volume of 200
# μL. Ampicillin, Kanamycin and Amphotericin B standard antibiotics were used as positive controls.
# Bacteria were incubated at 37±0.1 °C and C. albicans at 30±0.1 °C for 24-48 hours and the lowest concentration without growth was determined as MIC. Tests were performed in two parallel runs and mean values were given as a result. […]
compound,measurement,value
"C[C@@H]1[C@H](O)[C@@H](C)/C=C/C=C/C=C/C=C/C=C/C=C/C=C/[C@H](O[C@@H]2O[C@H](C)[C@@H](O)[C@H](N)[C@@H]2O)C[C@@H]2O[C@](O)(C[C@@H](O)C[C@@H](O)[C@H](O)CC[C@@H](O)C[C@@H](O)CC(=O)O[C@H]1C)C[C@H](O)[C@H]2C(=O)O [Amphotericin B, reference compound]",MIC,250 µg/mL

# From PMC12598805, “Crystal Structure–Activity Relationship of Some MeO Phenylacrylonitriles: Dual Antimicrobial–Cytotoxic Effects and in Silico Perspectives” (ChemistryOpen, 2025)
